According to the supplement of paper PMC8728848:
The other results are listed elsewhere or left out.

Experiments:
Assay in all cases: glycan array binding signal (z-score within array); higher = stronger binding
Settings in all cases: glycan notation: IUPAC condensed, linker removed
Glc(b1-6)Glc = target: Glc(b1-6)Glc
In short: (§1)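 Glycan array data were curated from 3228 arrays in the Consortium for Functional Glycomics database and kept only where the protein sequence was available. Glycan names were converted to IUPAC-condensed notation, and columns mapping to the same glycan were averaged. The binding signal is a within-array Z-score, averaged across arrays of the same protein sequence at different concentrations or buffers and across linkers. Negative Z-scores can be read as non-binding.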

GlcA(b1-3)Gal = target: GlcA(b1-3)Gal
In short: as §1

GlcA(b1-3)GlcNAc = target: GlcA(b1-3)GlcNAc
In short: as §1

GlcA(b1-6)Gal = target: GlcA(b1-6)Gal
In short: as §1

[1] = target: GlcA3S(b1-3)Gal(b1-4)GlcNAc(b1-2)Man
In short: as §1

[2] = target: GlcA3S(b1-3)Gal(b1-4)GlcNAc(b1-3)Gal(b1-4)Glc
In short: as §1

[3] = target: GlcNAc(a1-3)Gal(b1-4)GlcNAc
In short: as §1

[4] = target: GlcNAc(a1-4)Gal(b1-3)GlcNAc
In short: as §1

[5] = target: GlcNAc(a1-4)Gal(b1-4)GalNAc
In short: as §1

[6] = target: GlcNAc(a1-4)Gal(b1-4)GlcNAc
In short: as §1

[7] = target: GlcNAc(a1-4)Gal(b1-4)GlcNAc(b1-3)Gal(b1-4)Glc
In short: as §1

[8] = target: GlcNAc(a1-4)Gal(b1-4)GlcNAc(b1-3)Gal(b1-4)GlcNAc
In short: as §1

[9] = target: GlcNAc(a1-4)Gal(b1-4)GlcNAc(b1-3)Gal(b1-4)GlcNAc(b1-3)Gal(b1-4)GlcNAc
In short: as §1

[10] = target: GlcNAc(a1-4)Gal(b1-4)GlcNAc(b1-3)Gal(b1-4)[Fuc(a1-3)]GlcNAc(b1-3)Gal(b1-4)[Fuc(a1-3)]GlcNAc
In short: as §1

[11] = target: GlcNAc(a1-6)Gal(b1-4)GlcNAc
In short: as §1

[12] = target: GlcNAc(b1-2)Gal(b1-3)GalNAc
In short: as §1

[13] = target: GlcNAc(b1-2)Man(a1-3)[GlcNAc(b1-2)Man(a1-6)]Man(b1-4)GlcNAc(b1-4)GlcNAc
In short: as §1

[14] = target: GlcNAc(b1-2)Man(a1-3)[GlcNAc(b1-2)Man(a1-6)]Man(b1-4)GlcNAc(b1-4)[Fuc(a1-6)]GlcNAc
In short: as §1

[15] = target: GlcNAc(b1-2)Man(a1-3)[GlcNAc(b1-4)][GlcNAc(b1-2)Man(a1-6)]Man(b1-4)GlcNAc(b1-4)GlcNAc
In short: as §1

[16] = target: GlcNAc(b1-2)Man(a1-3)[GlcNAc(b1-4)][GlcNAc(b1-2)Man(a1-6)]Man(b1-4)GlcNAc(b1-4)[Fuc(a1-6)]GlcNAc
In short: as §1

[17] = target: GlcNAc(b1-2)[GlcNAc(b1-4)]Man(a1-3)[GlcNAc(b1-2)Man(a1-6)]Man(b1-4)GlcNAc(b1-4)GlcNAc
In short: as §1

[18] = target: GlcNAc(b1-2)[GlcNAc(b1-4)]Man(a1-3)[GlcNAc(b1-4)][GlcNAc(b1-2)Man(a1-6)]Man(b1-4)GlcNAc(b1-4)GlcNAc
In short: as §1

[19] = target: GlcNAc(b1-2)[GlcNAc(b1-4)]Man(a1-3)[GlcNAc(b1-4)][GlcNAc(b1-2)[GlcNAc(b1-6)]Man(a1-6)]Man(b1-4)GlcNAc(b1-4)GlcNAc
In short: as §1

[20] = target: GlcNAc(b1-2)[GlcNAc(b1-4)]Man(a1-3)[GlcNAc(b1-4)][GlcNAc(b1-2)[GlcNAc(b1-6)]Man(a1-6)]Man(b1-4)GlcNAc(b1-4)[Fuc(a1-6)]GlcNAc
In short: as §1

[21] = target: GlcNAc(b1-2)[GlcNAc(b1-6)]Man(a1-6)[GlcNAc(b1-2)Man(a1-3)]Man(b1-4)GlcNAc(b1-4)GlcNAc
In short: as §1

[22] = target: GlcNAc(b1-2)[GlcNAc(b1-6)]Man(a1-6)[GlcNAc(b1-2)Man(a1-3)]Man(b1-4)GlcNAc(b1-4)[Fuc(a1-6)]GlcNAc
In short: as §1

[23] = target: GlcNAc(b1-2)[GlcNAc(b1-6)]Man(a1-6)[GlcNAc(b1-4)][GlcNAc(b1-2)Man(a1-3)]Man(b1-4)GlcNAc(b1-4)GlcNAc
In short: as §1

GlcNAc(b1-3)Fuc = target: GlcNAc(b1-3)Fuc
In short: as §1

GlcNAc(b1-3)Gal = target: GlcNAc(b1-3)Gal
In short: as §1

[24] = target: GlcNAc(b1-3)Gal(b1-3)GalNAc
In short: as §1

GlcNAc(b1-3)Gal(b1-4)Glc = target: GlcNAc(b1-3)Gal(b1-4)Glc
In short: as §1

[25] = target: GlcNAc(b1-3)Gal(b1-4)GlcNAc
In short: as §1

[26] = target: GlcNAc(b1-3)Gal(b1-4)GlcNAc(b1-2)Man(a1-3)[GlcNAc(b1-3)Gal(b1-4)GlcNAc(b1-2)Man(a1-6)]Man(b1-4)GlcNAc(b1-4)GlcNAc
In short: as §1

[27] = target: GlcNAc(b1-3)Gal(b1-4)GlcNAc(b1-2)Man(a1-3)[GlcNAc(b1-3)Gal(b1-4)GlcNAc(b1-2)Man(a1-6)]Man(b1-4)GlcNAc(b1-4)[Fuc(a1-6)]GlcNAc
In short: as §1

[28] = target: GlcNAc(b1-3)Gal(b1-4)GlcNAc(b1-2)[GlcNAc(b1-3)Gal(b1-4)GlcNAc(b1-6)]Man(a1-6)[GlcNAc(b1-3)Gal(b1-4)GlcNAc(b1-2)Man(a1-3)]Man(b1-4)GlcNAc(b1-4)GlcNAc
In short: as §1

[29] = target: GlcNAc(b1-3)Gal(b1-4)GlcNAc(b1-3)Gal(b1-4)GlcNAc
In short: as §1

[30] = target: GlcNAc(b1-3)Gal(b1-4)GlcNAc(b1-3)Gal(b1-4)GlcNAc(b1-2)Man(a1-3)[GlcNAc(b1-3)Gal(b1-4)GlcNAc(b1-3)Gal(b1-4)GlcNAc(b1-2)Man(a1-6)]Man(b1-4)GlcNAc(b1-4)GlcNAc
In short: as §1

[31] = target: GlcNAc(b1-3)Gal(b1-4)GlcNAc(b1-3)Gal(b1-4)GlcNAc(b1-2)Man(a1-3)[GlcNAc(b1-3)Gal(b1-4)GlcNAc(b1-3)Gal(b1-4)GlcNAc(b1-2)Man(a1-6)]Man(b1-4)GlcNAc(b1-4)[Fuc(a1-6)]GlcNAc
In short: as §1

[32] = target: GlcNAc(b1-3)Gal(b1-4)GlcNAc(b1-3)Gal(b1-4)GlcNAc(b1-2)[GlcNAc(b1-3)Gal(b1-4)GlcNAc(b1-3)Gal(b1-4)GlcNAc(b1-6)]Man(a1-6)[GlcNAc(b1-3)Gal(b1-4)GlcNAc(b1-3)Gal(b1-4)GlcNAc(b1-2)Man(a1-3)]Man(b1-4)GlcNAc(b1-4)[Fuc(a1-6)]GlcNAc
In short: as §1

[33] = target: GlcNAc(b1-3)Gal(b1-4)GlcNAc(b1-3)Gal(b1-4)GlcNAc(b1-3)Gal(b1-4)GlcNAc(b1-2)Man(a1-3)[GlcNAc(b1-3)Gal(b1-4)GlcNAc(b1-3)Gal(b1-4)GlcNAc(b1-3)Gal(b1-4)GlcNAc(b1-2)Man(a1-6)]Man(b1-4)GlcNAc(b1-4)GlcNAc
In short: as §1

[34] = target: GlcNAc(b1-3)Gal(b1-4)GlcNAc(b1-3)Gal(b1-4)GlcNAc(b1-3)Gal(b1-4)GlcNAc(b1-2)Man(a1-3)[GlcNAc(b1-3)Gal(b1-4)GlcNAc(b1-3)Gal(b1-4)GlcNAc(b1-3)Gal(b1-4)GlcNAc(b1-2)Man(a1-6)]Man(b1-4)GlcNAc(b1-4)[Fuc(a1-6)]GlcNAc
In short: as §1

[35] = target: GlcNAc(b1-3)Gal(b1-4)GlcNAc(b1-3)Gal(b1-4)GlcNAc(b1-3)Gal(b1-4)GlcNAc(b1-2)[GlcNAc(b1-3)Gal(b1-4)GlcNAc(b1-3)Gal(b1-4)GlcNAc(b1-3)Gal(b1-4)GlcNAc(b1-6)]Man(a1-6)[GlcNAc(b1-3)Gal(b1-4)GlcNAc(b1-3)Gal(b1-4)GlcNAc(b1-3)Gal(b1-4)GlcNAc(b1-2)Man(a1-3)]Man(b1-4)GlcNAc(b1-4)[Fuc(a1-6)]GlcNAc
In short: as §1

[36] = target: GlcNAc(b1-3)Gal(b1-4)GlcNAc(b1-3)Gal(b1-4)GlcNAc(b1-3)Gal(b1-4)GlcNAc(b1-3)Gal(b1-4)GlcNAc(b1-2)Man(a1-3)[GlcNAc(b1-3)Gal(b1-4)GlcNAc(b1-3)Gal(b1-4)GlcNAc(b1-3)Gal(b1-4)GlcNAc(b1-3)Gal(b1-4)GlcNAc(b1-2)Man(a1-6)]Man(b1-4)GlcNAc(b1-4)GlcNAc
In short: as §1

[37] = target: GlcNAc(b1-3)Gal(b1-4)GlcNAc(b1-3)Gal(b1-4)GlcNAc(b1-3)Gal(b1-4)GlcNAc(b1-3)Gal(b1-4)GlcNAc(b1-2)Man(a1-3)[GlcNAc(b1-3)Gal(b1-4)GlcNAc(b1-3)Gal(b1-4)GlcNAc(b1-3)Gal(b1-4)GlcNAc(b1-3)Gal(b1-4)GlcNAc(b1-2)Man(a1-6)]Man(b1-4)GlcNAc(b1-4)[Fuc(a1-6)]GlcNAc
In short: as §1

[38] = target: GlcNAc(b1-3)Gal(b1-4)GlcNAc(b1-3)Gal(b1-4)GlcNAc(b1-3)Gal(b1-4)GlcNAc(b1-3)Gal(b1-4)GlcNAc(b1-2)[GlcNAc(b1-3)Gal(b1-4)GlcNAc(b1-3)Gal(b1-4)GlcNAc(b1-3)Gal(b1-4)GlcNAc(b1-3)Gal(b1-4)GlcNAc(b1-6)]Man(a1-6)[GlcNAc(b1-3)Gal(b1-4)GlcNAc(b1-3)Gal(b1-4)GlcNAc(b1-3)Gal(b1-4)GlcNAc(b1-3)Gal(b1-4)GlcNAc(b1-2)Man(a1-3)]Man(b1-4)GlcNAc(b1-4)[Fuc(a1-6)]GlcNAc
In short: as §1

B1: EUL D1A first (Oryza sativa) (protein)
chain: MFGFGHHHNQAPAAPSDPNQIFKIFCRANENYCLTVRDSAVVLAPVNPKDEHQHWFKDMRFSTKVKDGEGMPAFALVNKATGLAVKHSLGQSHPVKLVPFNPEYEDASVLWTESKDVGKGFRCIRMVNNTRLNLDAFHGDKDHGGVRDGTTVVLWEWCKGDNQSWKILPWGPEAHSSSPGAATILEQKLISEEDLNSAVDHHHHHH
glycan array binding signal (z-score) (Glc(b1-6)Glc): -0.941
glycan array binding signal (z-score) (GlcA(b1-3)Gal): -0.284
glycan array binding signal (z-score) (GlcA(b1-3)GlcNAc): 0.384
glycan array binding signal (z-score) (GlcA(b1-6)Gal): 0.046
glycan array binding signal (z-score) [1]: 0.924
glycan array binding signal (z-score) [2]: -0.203
glycan array binding signal (z-score) [3]: -1.65
glycan array binding signal (z-score) [4]: -1.04
glycan array binding signal (z-score) [5]: 1.73
glycan array binding signal (z-score) [6]: -1.09
glycan array binding signal (z-score) [7]: -0.65
glycan array binding signal (z-score) [8]: -0.994
glycan array binding signal (z-score) [9]: -0.413
glycan array binding signal (z-score) [10]: 0.005
glycan array binding signal (z-score) [11]: -0.988
glycan array binding signal (z-score) [12]: -0.463
glycan array binding signal (z-score) [13]: -0.66
glycan array binding signal (z-score) [14]: 3.11
glycan array binding signal (z-score) [15]: -0.869
glycan array binding signal (z-score) [16]: -0.231
glycan array binding signal (z-score) [17]: -1.05
glycan array binding signal (z-score) [18]: -0.55
glycan array binding signal (z-score) [19]: -0.605
glycan array binding signal (z-score) [20]: 0.23
glycan array binding signal (z-score) [21]: -0.379
glycan array binding signal (z-score) [22]: 2.21
glycan array binding signal (z-score) [23]: -1.08
glycan array binding signal (z-score) (GlcNAc(b1-3)Fuc): -0.954
glycan array binding signal (z-score) (GlcNAc(b1-3)Gal): -0.927
glycan array binding signal (z-score) [24]: -0.611
glycan array binding signal (z-score) (GlcNAc(b1-3)Gal(b1-4)Glc): -0.948
glycan array binding signal (z-score) [25]: -0.114
glycan array binding signal (z-score) [26]: -0.253
glycan array binding signal (z-score) [27]: 0.782
glycan array binding signal (z-score) [28]: 1.95
glycan array binding signal (z-score) [29]: -0.442
glycan array binding signal (z-score) [30]: 0.506
glycan array binding signal (z-score) [31]: -0.261
glycan array binding signal (z-score) [32]: 1.9
glycan array binding signal (z-score) [33]: 0.435
glycan array binding signal (z-score) [34]: 1.86
glycan array binding signal (z-score) [35]: 0.304
glycan array binding signal (z-score) [36]: -0.25
glycan array binding signal (z-score) [37]: 2.06
glycan array binding signal (z-score) [38]: 1.55
